Source: the supplement of paper PMC10849652
This is one part of the list. Residues, ends and D or L forms follow the SMILES beside them. *: point of attachment. Cbz = O=C(OCc1ccccc1)*

By UniProt entry, the sequences of proteins in these tests, tags left out. Where a name states a change or a piece, a line headed by the entry shows the natural chain unless it says otherwise.
UniProt P46019: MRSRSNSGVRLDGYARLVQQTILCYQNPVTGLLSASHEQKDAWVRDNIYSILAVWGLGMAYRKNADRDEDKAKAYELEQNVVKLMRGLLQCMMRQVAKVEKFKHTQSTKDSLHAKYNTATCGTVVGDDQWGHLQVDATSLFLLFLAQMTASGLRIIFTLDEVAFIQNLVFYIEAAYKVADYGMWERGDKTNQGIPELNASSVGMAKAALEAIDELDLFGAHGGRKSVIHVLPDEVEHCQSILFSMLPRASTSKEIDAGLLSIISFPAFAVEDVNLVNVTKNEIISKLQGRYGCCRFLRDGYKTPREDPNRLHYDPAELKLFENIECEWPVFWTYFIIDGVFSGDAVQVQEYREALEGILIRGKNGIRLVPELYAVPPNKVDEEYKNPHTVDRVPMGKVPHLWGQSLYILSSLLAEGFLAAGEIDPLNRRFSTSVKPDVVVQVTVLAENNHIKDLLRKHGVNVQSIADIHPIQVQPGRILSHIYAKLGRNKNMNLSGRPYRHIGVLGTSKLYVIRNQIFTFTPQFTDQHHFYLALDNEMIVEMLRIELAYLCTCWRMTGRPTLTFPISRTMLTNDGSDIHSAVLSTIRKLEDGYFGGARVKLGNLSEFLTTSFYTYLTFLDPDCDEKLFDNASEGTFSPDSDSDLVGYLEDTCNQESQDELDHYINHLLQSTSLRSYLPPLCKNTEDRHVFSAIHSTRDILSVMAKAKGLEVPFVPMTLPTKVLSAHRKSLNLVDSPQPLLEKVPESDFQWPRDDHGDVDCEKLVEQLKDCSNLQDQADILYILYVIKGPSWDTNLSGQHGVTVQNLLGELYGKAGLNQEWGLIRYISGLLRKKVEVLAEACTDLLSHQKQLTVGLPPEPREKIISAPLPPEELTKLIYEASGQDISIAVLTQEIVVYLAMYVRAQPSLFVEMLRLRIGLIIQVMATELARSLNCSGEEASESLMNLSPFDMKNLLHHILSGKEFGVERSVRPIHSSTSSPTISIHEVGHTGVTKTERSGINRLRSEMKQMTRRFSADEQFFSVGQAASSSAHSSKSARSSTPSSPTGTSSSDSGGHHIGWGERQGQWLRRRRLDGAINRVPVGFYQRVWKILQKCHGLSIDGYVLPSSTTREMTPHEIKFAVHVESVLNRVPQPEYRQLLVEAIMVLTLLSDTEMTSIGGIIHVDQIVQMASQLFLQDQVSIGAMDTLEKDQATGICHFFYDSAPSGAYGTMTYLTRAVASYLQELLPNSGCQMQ
UniProt Q8TBX8: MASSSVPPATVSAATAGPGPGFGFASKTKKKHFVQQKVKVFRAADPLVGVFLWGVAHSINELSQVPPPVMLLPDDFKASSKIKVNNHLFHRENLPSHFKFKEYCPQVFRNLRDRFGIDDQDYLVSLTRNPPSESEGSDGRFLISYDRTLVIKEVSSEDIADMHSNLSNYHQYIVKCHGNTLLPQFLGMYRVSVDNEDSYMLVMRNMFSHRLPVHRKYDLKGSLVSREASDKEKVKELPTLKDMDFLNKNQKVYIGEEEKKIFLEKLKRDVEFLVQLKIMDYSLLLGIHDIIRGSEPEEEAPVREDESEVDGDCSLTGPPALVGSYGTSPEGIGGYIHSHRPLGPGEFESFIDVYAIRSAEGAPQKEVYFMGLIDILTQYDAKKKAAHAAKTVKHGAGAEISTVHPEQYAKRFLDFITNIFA
UniProt Q5JRX3: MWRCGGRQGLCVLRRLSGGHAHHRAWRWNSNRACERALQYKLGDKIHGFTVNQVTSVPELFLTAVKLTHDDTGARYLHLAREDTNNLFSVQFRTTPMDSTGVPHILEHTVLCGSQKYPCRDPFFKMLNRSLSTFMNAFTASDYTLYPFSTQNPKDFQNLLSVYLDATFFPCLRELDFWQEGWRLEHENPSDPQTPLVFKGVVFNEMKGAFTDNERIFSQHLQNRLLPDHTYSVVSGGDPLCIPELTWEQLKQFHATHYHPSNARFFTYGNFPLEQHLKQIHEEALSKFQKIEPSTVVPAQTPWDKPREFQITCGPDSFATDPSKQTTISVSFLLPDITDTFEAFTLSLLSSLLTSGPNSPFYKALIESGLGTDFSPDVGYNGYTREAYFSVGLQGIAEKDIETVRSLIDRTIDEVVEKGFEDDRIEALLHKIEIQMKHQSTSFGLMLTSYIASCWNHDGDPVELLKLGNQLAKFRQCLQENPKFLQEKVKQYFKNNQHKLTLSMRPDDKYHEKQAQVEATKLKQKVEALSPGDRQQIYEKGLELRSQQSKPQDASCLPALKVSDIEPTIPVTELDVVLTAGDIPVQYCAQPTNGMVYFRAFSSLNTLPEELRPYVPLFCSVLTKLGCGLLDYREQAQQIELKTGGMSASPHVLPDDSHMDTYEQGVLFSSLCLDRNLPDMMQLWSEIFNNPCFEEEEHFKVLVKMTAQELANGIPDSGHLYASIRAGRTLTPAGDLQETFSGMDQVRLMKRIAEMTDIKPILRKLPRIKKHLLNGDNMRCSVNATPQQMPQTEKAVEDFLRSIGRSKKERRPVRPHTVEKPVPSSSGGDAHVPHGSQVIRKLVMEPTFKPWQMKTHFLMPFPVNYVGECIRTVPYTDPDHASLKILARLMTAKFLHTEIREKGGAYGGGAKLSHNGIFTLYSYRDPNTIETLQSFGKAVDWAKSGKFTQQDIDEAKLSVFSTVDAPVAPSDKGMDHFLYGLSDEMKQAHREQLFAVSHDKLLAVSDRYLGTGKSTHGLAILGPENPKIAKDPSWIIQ
UniProt O43164: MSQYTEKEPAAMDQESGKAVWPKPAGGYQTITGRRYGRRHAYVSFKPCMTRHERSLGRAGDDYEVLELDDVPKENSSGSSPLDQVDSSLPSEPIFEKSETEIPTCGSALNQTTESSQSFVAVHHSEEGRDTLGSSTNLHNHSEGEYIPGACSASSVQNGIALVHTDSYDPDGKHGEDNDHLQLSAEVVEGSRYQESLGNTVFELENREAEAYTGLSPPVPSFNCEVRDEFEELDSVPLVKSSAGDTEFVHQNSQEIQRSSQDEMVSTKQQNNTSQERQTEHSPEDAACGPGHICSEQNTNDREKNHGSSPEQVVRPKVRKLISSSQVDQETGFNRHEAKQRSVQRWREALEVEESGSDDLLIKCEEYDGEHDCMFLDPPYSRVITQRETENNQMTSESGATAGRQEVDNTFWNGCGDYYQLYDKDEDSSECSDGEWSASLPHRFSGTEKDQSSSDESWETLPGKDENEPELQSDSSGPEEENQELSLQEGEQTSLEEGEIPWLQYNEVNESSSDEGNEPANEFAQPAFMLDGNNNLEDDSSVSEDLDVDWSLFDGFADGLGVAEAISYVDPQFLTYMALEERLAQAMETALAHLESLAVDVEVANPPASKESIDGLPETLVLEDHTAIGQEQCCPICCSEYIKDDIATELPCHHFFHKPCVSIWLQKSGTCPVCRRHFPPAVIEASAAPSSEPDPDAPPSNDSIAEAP
UniProt Q8NCC3: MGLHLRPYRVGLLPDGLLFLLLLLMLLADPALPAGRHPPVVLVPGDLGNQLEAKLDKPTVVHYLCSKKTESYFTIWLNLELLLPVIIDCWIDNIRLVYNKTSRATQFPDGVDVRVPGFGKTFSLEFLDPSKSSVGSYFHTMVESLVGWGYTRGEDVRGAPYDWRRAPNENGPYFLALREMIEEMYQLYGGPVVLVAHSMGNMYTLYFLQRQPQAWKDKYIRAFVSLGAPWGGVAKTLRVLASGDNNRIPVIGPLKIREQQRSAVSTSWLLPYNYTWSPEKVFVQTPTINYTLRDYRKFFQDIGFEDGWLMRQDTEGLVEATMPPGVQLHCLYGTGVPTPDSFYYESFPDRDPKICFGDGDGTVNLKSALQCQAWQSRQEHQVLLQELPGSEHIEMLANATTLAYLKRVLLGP
UniProt Q8IV08: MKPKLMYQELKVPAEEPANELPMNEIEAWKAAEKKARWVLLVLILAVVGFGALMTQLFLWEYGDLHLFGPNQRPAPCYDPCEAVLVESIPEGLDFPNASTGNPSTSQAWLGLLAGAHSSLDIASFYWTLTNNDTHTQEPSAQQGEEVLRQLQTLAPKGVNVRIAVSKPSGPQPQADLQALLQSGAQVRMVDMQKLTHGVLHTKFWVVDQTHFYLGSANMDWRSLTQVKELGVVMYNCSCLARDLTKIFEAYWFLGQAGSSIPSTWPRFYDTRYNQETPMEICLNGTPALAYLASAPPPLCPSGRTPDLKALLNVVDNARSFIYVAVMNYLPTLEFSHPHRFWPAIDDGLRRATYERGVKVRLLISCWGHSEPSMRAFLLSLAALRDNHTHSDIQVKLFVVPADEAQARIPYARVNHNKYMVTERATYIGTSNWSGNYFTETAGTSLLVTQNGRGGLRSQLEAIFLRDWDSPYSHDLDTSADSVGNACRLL
UniProt Q969N2: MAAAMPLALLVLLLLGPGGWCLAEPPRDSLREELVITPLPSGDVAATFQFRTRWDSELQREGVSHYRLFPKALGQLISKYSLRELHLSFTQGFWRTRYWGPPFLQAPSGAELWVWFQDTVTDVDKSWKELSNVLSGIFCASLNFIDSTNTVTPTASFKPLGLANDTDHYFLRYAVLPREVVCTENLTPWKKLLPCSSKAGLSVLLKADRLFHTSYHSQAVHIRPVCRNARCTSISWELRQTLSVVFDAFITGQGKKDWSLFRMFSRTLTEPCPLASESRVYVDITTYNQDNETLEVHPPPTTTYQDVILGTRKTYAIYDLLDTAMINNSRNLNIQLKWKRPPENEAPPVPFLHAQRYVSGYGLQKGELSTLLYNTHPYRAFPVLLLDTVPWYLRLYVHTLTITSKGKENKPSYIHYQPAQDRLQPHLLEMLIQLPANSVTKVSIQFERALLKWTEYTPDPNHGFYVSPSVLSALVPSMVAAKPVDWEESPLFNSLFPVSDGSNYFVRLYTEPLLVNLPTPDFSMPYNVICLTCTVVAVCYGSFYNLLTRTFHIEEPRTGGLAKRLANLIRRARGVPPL
UniProt Q16513: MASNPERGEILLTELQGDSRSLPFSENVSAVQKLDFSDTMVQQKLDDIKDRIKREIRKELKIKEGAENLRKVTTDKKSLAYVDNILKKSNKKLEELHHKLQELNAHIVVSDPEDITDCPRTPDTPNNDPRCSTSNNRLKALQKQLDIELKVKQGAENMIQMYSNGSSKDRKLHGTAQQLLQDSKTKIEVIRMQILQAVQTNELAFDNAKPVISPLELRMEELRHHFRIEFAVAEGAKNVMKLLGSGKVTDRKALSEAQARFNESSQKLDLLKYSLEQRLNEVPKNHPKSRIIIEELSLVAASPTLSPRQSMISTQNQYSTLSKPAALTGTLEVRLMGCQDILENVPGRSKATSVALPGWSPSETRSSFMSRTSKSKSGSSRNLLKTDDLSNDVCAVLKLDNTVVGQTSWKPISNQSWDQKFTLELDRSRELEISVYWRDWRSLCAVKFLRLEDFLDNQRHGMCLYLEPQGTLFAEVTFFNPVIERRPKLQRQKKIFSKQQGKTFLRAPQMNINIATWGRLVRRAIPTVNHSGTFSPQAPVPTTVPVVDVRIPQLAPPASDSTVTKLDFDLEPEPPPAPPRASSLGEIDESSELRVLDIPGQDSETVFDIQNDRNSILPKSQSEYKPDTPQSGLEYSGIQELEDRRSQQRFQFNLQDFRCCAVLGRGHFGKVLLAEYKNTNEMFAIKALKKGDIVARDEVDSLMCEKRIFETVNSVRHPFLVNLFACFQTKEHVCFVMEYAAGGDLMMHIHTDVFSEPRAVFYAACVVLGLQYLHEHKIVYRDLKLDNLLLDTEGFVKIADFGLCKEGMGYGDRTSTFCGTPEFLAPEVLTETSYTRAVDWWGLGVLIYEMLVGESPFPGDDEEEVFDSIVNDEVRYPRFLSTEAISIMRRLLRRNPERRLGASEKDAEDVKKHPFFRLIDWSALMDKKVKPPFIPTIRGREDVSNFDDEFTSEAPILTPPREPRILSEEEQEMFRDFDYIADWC
UniProt Q86T03: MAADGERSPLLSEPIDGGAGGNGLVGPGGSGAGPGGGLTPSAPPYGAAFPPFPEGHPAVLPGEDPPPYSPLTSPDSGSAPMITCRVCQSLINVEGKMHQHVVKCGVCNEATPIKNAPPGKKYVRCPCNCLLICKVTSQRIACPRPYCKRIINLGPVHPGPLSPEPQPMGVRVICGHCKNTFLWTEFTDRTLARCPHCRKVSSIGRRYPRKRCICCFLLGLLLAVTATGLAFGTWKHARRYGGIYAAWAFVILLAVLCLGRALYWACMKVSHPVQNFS
UniProt Q9H814, whole entry, looked up: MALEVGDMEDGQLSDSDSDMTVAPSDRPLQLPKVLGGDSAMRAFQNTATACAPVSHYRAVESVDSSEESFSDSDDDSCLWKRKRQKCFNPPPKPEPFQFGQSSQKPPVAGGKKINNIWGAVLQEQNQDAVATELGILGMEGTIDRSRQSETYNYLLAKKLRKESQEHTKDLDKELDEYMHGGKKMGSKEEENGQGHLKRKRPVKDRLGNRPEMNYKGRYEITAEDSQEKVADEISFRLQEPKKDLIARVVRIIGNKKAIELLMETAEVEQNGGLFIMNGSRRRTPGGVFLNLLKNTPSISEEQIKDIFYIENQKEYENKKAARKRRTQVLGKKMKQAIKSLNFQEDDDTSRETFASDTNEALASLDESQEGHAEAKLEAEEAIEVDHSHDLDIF

What was measured:
Assay in all cases: log2 fold change, soluble protein after heating vs DMSO (PISA); higher = thermal stabilisation; K562 cells, 10 uM, 30 min; active = over 0.2 and 3.5 SD of the protein, either way, in both replicates (recomputed)
IRAK-1-4 Inhibitor I = compound: C1COCCN1CCN2C3=CC=CC=C3N=C2NC(=O)C4=CC(=CC=C4)[N+](=O)[O-] [IRAK-1-4 Inhibitor I]
Summary of the method: (§1)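 Soluble protein was defined as the supernatant after 21,000xg for 90 min. It came from K562 cells at 2×10^6 cells/mL given 10 μM compound for 30 min, heated in aliquots for 3 min across 48°C-58°C, pooled, and extracted in PBS with 0.5% NP-40 at 4°C, and was quantified by TMTpro 16plex LC-MS/MS with equalised channel sums. Thermal stability against control samples, from duplicates, is reported as log2 fold change.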

ibrutinib = compound: C=CC(=O)N1CCC[C@@H](n2nc(-c3ccc(Oc4ccccc4)cc3)c3c(N)ncnc32)C1 [ibrutinib]
Summary of the method: as §1

[1] = compound: CC(=O)c1cnc2ccc(-c3cc(Cl)c(O)c(Cl)c3)nc2c1N[C@H]1CC[C@H](CN(C)C)CC1
Summary of the method: as §1

ralimetinib = compound: CC(C)(C)Cn1c(N)nc2ccc(-c3[nH]c(C(C)(C)C)nc3-c3ccc(F)cc3)nc21 [ralimetinib]
Summary of the method: as §1

[2] = compound: CC(C)(O)CC(=O)NCCn1ccc2ncnc(Nc3ccc(Oc4cccc(C(F)(F)F)c4)c(Cl)c3)c21
Summary of the method: as §1

[3] = compound: CC(C)C1=C2N=C(C=C(N2N=C1)NCC3=CC=CC=C3)NCCCCCCN
Summary of the method: as §1

[4] = compound: CC(C)C[C@@H](C=O)NC(=O)[C@H](CC(C)C)NC(=O)[C@H](CC(C)C)NC(=O)OCc1ccccc1
Summary of the method: as §1

pinometostat = compound: CC(C)N(C[C@H]1O[C@@H](n2cnc3c(N)ncnc32)[C@H](O)[C@@H]1O)[C@H]1C[C@@H](CCc2nc3cc(C(C)(C)C)ccc3[nH]2)C1 [pinometostat]
Summary of the method: as §1

[5] = compound: CC1=C(C(CC(=O)N1)C2=CC=C(C=C2)C(F)(F)F)C(=O)NC3=C(C=C4C(=C3)C=NN4)F
Summary of the method: as §1

[6] = compound: CC1=C(C2=C(C=C1)C(=O)C3=CC=CC=C3N2CCCN)C
Summary of the method: as §1

[7] = compound: CC1=C(C=C(C=C1)NC(=O)C2=CC(=CC=C2)C(C)(C)C#N)NC3=CC4=C(C=C3)N=CN(C4=O)C
Summary of the method: as §1

[8] = compound: CC1=C(C=C(C=C1)NC(=O)C2=CC(=CC=C2)N(C)C)NC(=O)C3=CC=C(C=C3)O
Summary of the method: as §1

[9] = compound: CC1=CC=C(C=C1)SC2=C3C=C(SC3=CN=C2)C(=O)N
Summary of the method: as §1

[10] = compound: CC1=NC(=CC=C1)C2=C(N=C(N2)C(C)(C)C)C3=CC4=NC=CN=C4C=C3
Summary of the method: as §1

Nexturastat A = compound: CCCCN(Cc1ccc(C(=O)NO)cc1)C(=O)Nc1ccccc1 [Nexturastat A]
Summary of the method: as §1

vemurafenib = compound: CCCS(=O)(=O)Nc1ccc(F)c(C(=O)c2c[nH]c3ncc(-c4ccc(Cl)cc4)cc23)c1F [vemurafenib]
Summary of the method: as §1

[11] = compound: CCCS(=O)(=O)Nc1ccc(F)c(C(=O)c2c[nH]c3ncc(Cl)cc23)c1F
Summary of the method: as §1

[12] = compound: CCCc1cc(C)[nH]c(=O)c1CNC(=O)c1cc(-c2ccnc(N3CCN(C)CC3)c2)cc2c1cnn2C(C)C
Summary of the method: as §1

givinostat = compound: CCN(CC)Cc1ccc2cc(COC(=O)Nc3ccc(C(=O)NO)cc3)ccc2c1 [givinostat]
Summary of the method: as §1

barasertib = compound: CCN(CCCOc1ccc2c(Nc3cc(CC(=O)Nc4cccc(F)c4)[nH]n3)ncnc2c1)CCOP(=O)(O)O [barasertib]
Summary of the method: as §1

Measured: log2 fold change

PGRMC1 (UniProt O00264)
inactive: IRAK-1-4 Inhibitor I 0.041 | ibrutinib 0.019 | [1] -0.012 | ralimetinib -0.006 | [2] 0.034 | [3] 0.04 | [4] -0.067 | pinometostat -0.048 | [5] 0.006 | [6] -0.015 | [7] -0.017 | [8] -0.018 | [9] -0.011 | [10] 0.023 | Nexturastat A -0.024 | vemurafenib 0.025 | [11] 0.011 | [12] 0.028 | givinostat -0.001 | barasertib 0.027

PLCG1 isoform 2 (UniProt P19174)
inactive: IRAK-1-4 Inhibitor I -0.079 | ibrutinib 0.03 | [1] 0.041 | ralimetinib -0.042 | [3] -0.23 | [4] 0.007 | pinometostat 0.069 | [6] -0.027 | [7] 0.045 | [8] -0.011 | [9] 0.039 | [10] -0.012 | Nexturastat A 0.019 | vemurafenib 0.003 | [11] 0.079 | [12] -0.019 | givinostat -0.013 | barasertib 0.031
active: [2] -0.362

PIKFYVE (UniProt Q9Y2I7)
inactive: IRAK-1-4 Inhibitor I -0.032 | ibrutinib -0.097 | [1] -0.07 | ralimetinib -0.002 | [2] -0.145 | [3] -0.256 | [4] 0.063 | pinometostat 0.006 | [6] 0.012 | [7] -0.012 | [8] -0.02 | [9] 0.005 | [10] 0.006 | Nexturastat A 0.004 | vemurafenib 0.091 | [11] 0.109 | [12] -0.001 | givinostat 0.054 | barasertib 0.013

PHKA2 (UniProt P46019)
inactive: IRAK-1-4 Inhibitor I 0.053 | ibrutinib -0.095 | [1] 0.049 | ralimetinib 0.011 | [2] -0.1 | [3] -0.143 | [4] 0.065 | pinometostat 0.138 | [6] 0.028 | [7] 0.028 | [8] 0 | [9] 0.028 | [10] 0.053 | Nexturastat A -0.038 | vemurafenib -0.014 | [11] 0.052 | [12] -0.07 | givinostat 0.048 | barasertib 0.057

PIP4K2C (UniProt Q8TBX8)
inactive: IRAK-1-4 Inhibitor I 0.607 | ibrutinib 0.064 | ralimetinib -0.019 | [2] -0.14 | [3] 0.095 | [4] 0.003 | pinometostat -0.006 | [6] 0.018 | [7] -0.003 | [8] -0.06 | [9] 0.073 | [10] 0.007 | Nexturastat A -0.046 | vemurafenib -0.035 | [11] 0 | [12] -0.029 | givinostat -0.047 | barasertib -0.016
active: [1] 1.48

PITRM1 isoform 2 (UniProt Q5JRX3)
active: ralimetinib 0.239
inactive: IRAK-1-4 Inhibitor I 0.045 | ibrutinib -0.045 | [1] -0.046 | [2] -0.173 | [3] -0.026 | [4] 0.062 | pinometostat -0.042 | [6] 0.006 | [7] 0.21 | [8] -0.064 | [9] 0.047 | [10] 0.073 | Nexturastat A -0.152 | vemurafenib 0.002 | [11] -0.002 | [12] 0.018 | givinostat -0.047 | barasertib -0.03

PJA2 (UniProt O43164)
inactive: IRAK-1-4 Inhibitor I 0.061 | ibrutinib 0.023 | [1] 0.091 | ralimetinib -0.004 | [2] -0.02 | [3] -0.013 | [4] 0.169 | pinometostat -0.005 | [7] -0.059 | [8] 0.019 | [9] -0.008 | [10] -0.019 | Nexturastat A 0.188 | vemurafenib -0.024 | [11] -0.062 | [12] -0.024 | givinostat 0.017 | barasertib -0.004
active: [6] -0.308

Reprinted at random: 2 records from the list.
PIP4K2C (UniProt Q8TBX8)
inactive: IRAK-1-4 Inhibitor I 0.607 | ibrutinib 0.064 | ralimetinib -0.019 | [2] -0.14 | [3] 0.095 | [4] 0.003 | pinometostat -0.006 | [6] 0.018 | [7] -0.003 | [8] -0.06 | [9] 0.073 | [10] 0.007 | Nexturastat A -0.046 | vemurafenib -0.035 | [11] 0 | [12] -0.029 | givinostat -0.047 | barasertib -0.016
active: [1] 1.48

PIKFYVE (UniProt Q9Y2I7)
inactive: IRAK-1-4 Inhibitor I -0.032 | ibrutinib -0.097 | [1] -0.07 | ralimetinib -0.002 | [2] -0.145 | [3] -0.256 | [4] 0.063 | pinometostat 0.006 | [6] 0.012 | [7] -0.012 | [8] -0.02 | [9] 0.005 | [10] 0.006 | Nexturastat A 0.004 | vemurafenib 0.091 | [11] 0.109 | [12] -0.001 | givinostat 0.054 | barasertib 0.013

Remaining list, next part

PLA2G15 (UniProt Q8NCC3)
inactive: IRAK-1-4 Inhibitor I 0.071 | ibrutinib -0.012 | [1] -0.018 | ralimetinib -0.057 | [2] -0.004 | [3] -0.024 | [4] 0.113 | pinometostat 0.006 | [6] -0.141 | [7] 0.04 | [8] -0.013 | [9] 0.005 | [10] -0.026 | Nexturastat A 0.089 | vemurafenib 0.044 | [11] 0.001 | [12] -0.063 | givinostat 0.019 | barasertib 0.024

PLD3 (UniProt Q8IV08)
inactive: IRAK-1-4 Inhibitor I 0.022 | ibrutinib -0.031 | [1] -0.042 | ralimetinib -0.039 | [2] -0.022 | [3] -0.079 | [4] 0.05 | pinometostat -0.005 | [6] -0.023 | [7] 0.002 | [8] 0.012 | [9] 0.034 | [10] 0.018 | Nexturastat A -0.081 | vemurafenib -0.007 | [11] 0.019 | [12] -0.028 | givinostat -0.072 | barasertib -0.013

PIGT (UniProt Q969N2)
inactive: IRAK-1-4 Inhibitor I -0.016 | ibrutinib 0.01 | [1] -0.009 | ralimetinib 0.022 | [2] -0.067 | [3] -0.089 | [4] 0.002 | pinometostat 0.045 | [6] 0.01 | [7] -0.001 | [8] -0.005 | [9] 0.02 | [10] -0.016 | Nexturastat A 0.031 | vemurafenib -0.008 | [11] 0.009 | [12] 0.027 | givinostat -0.033 | barasertib 0.004

PGGT1B (UniProt P53609)
inactive: IRAK-1-4 Inhibitor I 0.003 | ibrutinib -0.004 | [1] -0.062 | ralimetinib -0.055 | [2] 0.026 | [3] -0.019 | [4] 0.026 | pinometostat -0.03 | [6] -0.028 | [7] -0.062 | [8] 0.006 | [9] 0.002 | [10] 0.035 | Nexturastat A -0.073 | vemurafenib -0.022 | [11] -0.023 | [12] -0.025 | givinostat 0.009 | barasertib 0.035

PFDN1 (UniProt O60925)
inactive: IRAK-1-4 Inhibitor I -0.187 | ibrutinib -0.119 | [1] -0.002 | ralimetinib -0.141 | [2] -0.031 | [3] 0.062 | [4] -0.13 | pinometostat -0.175 | [6] 0.254 | [7] 0.039 | [8] -0.131 | [9] 0.089 | [10] 0.041 | Nexturastat A -0.071 | vemurafenib 0.172 | [11] -0.019 | [12] -0.016 | givinostat 0.004 | barasertib 0.002

PKN2 (UniProt Q16513)
active: [1] -0.797
inactive: IRAK-1-4 Inhibitor I -0.017 | ibrutinib -0.054 | ralimetinib 0.085 | [2] -0.042 | [3] -0.051 | [4] 0.085 | pinometostat 0.141 | [6] -0.016 | [7] 0.104 | [8] -0.005 | [9] 0.018 | [10] -0.012 | Nexturastat A 0.042 | vemurafenib 0.05 | [11] 0.086 | [12] 0.032 | givinostat 0.034 | barasertib 0.106

PIP4P1 isoform 2 (UniProt Q86T03)
active: [3] -0.329
inactive: IRAK-1-4 Inhibitor I -0.011 | ibrutinib 0.003 | [1] -0.002 | ralimetinib 0.003 | [2] -0.004 | [4] 0.022 | pinometostat -0.031 | [6] -0.062 | [7] -0.018 | [8] -0.001 | [9] -0.019 | [10] 0.039 | Nexturastat A 0.035 | vemurafenib -0.198 | [11] -0.063 | [12] -0.002 | givinostat -0.037 | barasertib 0.001

PHKG2 (UniProt P15735)
active: [1] 0.39
inactive: IRAK-1-4 Inhibitor I -0.034 | ibrutinib -0.008 | ralimetinib 0.031 | [2] -0.121 | [3] -0.041 | [4] 0.017 | pinometostat 0.054 | [6] 0.115 | [7] 0.012 | [8] -0.007 | [9] -0.083 | [10] -0.031 | Nexturastat A 0.002 | vemurafenib -0.003 | [11] -0.004 | [12] 0 | givinostat 0.01 | barasertib -0.079

PHAX (UniProt Q9H814)
active: [6] -0.253
inactive: IRAK-1-4 Inhibitor I 0.015 | ibrutinib 0.027 | [1] -0.041 | ralimetinib 0.002 | [2] 0.024 | [3] -0.16 | [4] 0.019 | pinometostat 0.016 | [7] -0.019 | [8] 0.013 | [9] 0.022 | [10] -0.043 | Nexturastat A 0.02 | vemurafenib 0.002 | [11] -0.019 | [12] -0.045 | givinostat -0.076 | barasertib -0.008
